Data taken from US5085989A, “Method and reagent for quantitative analysis of 3-oxo-5β-steroid” (Daiichi Pure Chemicals Co., Ltd., priority 1986, dated 1992).

System: 3-oxo-5β-steroidΔ^4 -dehydrogenase
Assay: Quantitative analysis of 3-oxo-5β-steroid in serum: reaction with Δ^4 DH and NTB, optical density at 540 nm
Format: biochemical, Pseudomonas testosteroni
Settings: pH 8, 37° C., 10 min

SMILES | Optical Density at 540 nm (Table 2, 5β-androstan-3,17-dione concentration 20 (mole/l as printed) in serum) | Optical Density at 540 nm (Table 2, 5β-androstan-3,17-dione concentration 40 (mole/l as printed) in serum) | Optical Density at 540 nm (Table 2, 5β-androstan-3,17-dione concentration 60 (mole/l as printed) in serum) | Optical Density at 540 nm (Table 2, 5β-androstan-3,17-dione concentration 80 (mole/l as printed) in serum) | Optical Density at 540 nm (Table 2, 5β-androstan-3,17-dione concentration 100 (mole/l as printed) in serum) | Optical Density at 540 nm (Table 2, 5β-androstan-3,17-dione concentration 120 (mole/l as printed) in serum) | Optical Density at 540 nm (Table 1, dehydrochoric acid concentration 20 (mole/l as printed) in serum) | Optical Density at 540 nm (Table 1, dehydrochoric acid concentration 40 (mole/l as printed) in serum) | Optical Density at 540 nm (Table 1, dehydrochoric acid concentration 60 (mole/l as printed) in serum) | Optical Density at 540 nm (Table 1, dehydrochoric acid concentration 80 (mole/l as printed) in serum) | Optical Density at 540 nm (Table 1, dehydrochoric acid concentration 100 (mole/l as printed) in serum) | Optical Density at 540 nm (Table 1, dehydrochoric acid concentration 140 (mole/l as printed) in serum) | Optical Density at 540 nm (Table 1, dehydrochoric acid concentration 180 (mole/l as printed) in serum)
C[C@]12CCC(=O)C[C@H]1CC[C@@H]1[C@@H]2CC[C@]2(C)C(=O)CC[C@@H]12 [5β-androstan-3,17-dione] | 0.065 | 0.132 | 0.201 | 0.270 | 0.332 | 0.403 | – | – | – | – | – | – | –
C[C@H](CCC(=O)O)[C@H]1CC[C@H]2[C@@H]3C(=O)C[C@@H]4CC(=O)CC[C@]4(C)[C@H]3CC(=O)[C@]12C [Dehydrochoric Acid, dehydrochoric acid] | – | – | – | – | – | – | 0.022 | 0.046 | 0.077 | 0.101 | 0.122 | 0.172 | 0.226
